Measured values as given in PubChem BioAssay AID188 (DTP/NCI, 2004).
The mice bore no tumour; each value counts animals alive of those treated. Counts of survivors are from the toxicity check (mostly the fifth day) where no day follows; animals may have died later. Schedule codes are those of the source, read here as Q, the interval in days (D) or hours (H), X, the number of doses.

System: CD2F1 mice, nontumored, toxicity/survival
Assay: NCI In Vivo Anticancer Drug Screen. Data for tumor model Nontumored Animals (Toxicity Test) in CD2F1 (CDF1) mice
Conditions: schedule: Q01DX009 (ip), vehicle: saline

Measured: survivor count

CN(N=O)C(=O)N[C@@H](C=O)[C@@H](O)[C@H](O)[C@H](O)CO
4 of 4: dose: 60.0 mg/kg/injection | dose: 100.0 mg/kg/injection | dose: 167.0 mg/kg/injection
